Binding data for one substance are collected here from article PMC7887808.

By UniProt entry, the sequences of proteins in these tests, tags left out. Where a name states a change or a piece, a line headed by the entry shows the natural chain unless it says otherwise.
UniProt Q9BS26: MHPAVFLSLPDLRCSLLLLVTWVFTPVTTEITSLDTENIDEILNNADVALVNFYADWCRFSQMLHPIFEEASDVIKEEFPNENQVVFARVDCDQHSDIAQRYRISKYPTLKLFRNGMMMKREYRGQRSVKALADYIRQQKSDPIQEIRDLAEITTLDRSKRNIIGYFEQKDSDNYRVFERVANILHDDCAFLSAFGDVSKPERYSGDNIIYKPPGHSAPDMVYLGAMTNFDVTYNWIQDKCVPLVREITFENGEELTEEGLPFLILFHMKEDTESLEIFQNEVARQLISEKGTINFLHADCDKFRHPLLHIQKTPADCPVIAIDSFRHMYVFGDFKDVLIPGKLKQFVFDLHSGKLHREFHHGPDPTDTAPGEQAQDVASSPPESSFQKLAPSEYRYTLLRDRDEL
UniProt P53396: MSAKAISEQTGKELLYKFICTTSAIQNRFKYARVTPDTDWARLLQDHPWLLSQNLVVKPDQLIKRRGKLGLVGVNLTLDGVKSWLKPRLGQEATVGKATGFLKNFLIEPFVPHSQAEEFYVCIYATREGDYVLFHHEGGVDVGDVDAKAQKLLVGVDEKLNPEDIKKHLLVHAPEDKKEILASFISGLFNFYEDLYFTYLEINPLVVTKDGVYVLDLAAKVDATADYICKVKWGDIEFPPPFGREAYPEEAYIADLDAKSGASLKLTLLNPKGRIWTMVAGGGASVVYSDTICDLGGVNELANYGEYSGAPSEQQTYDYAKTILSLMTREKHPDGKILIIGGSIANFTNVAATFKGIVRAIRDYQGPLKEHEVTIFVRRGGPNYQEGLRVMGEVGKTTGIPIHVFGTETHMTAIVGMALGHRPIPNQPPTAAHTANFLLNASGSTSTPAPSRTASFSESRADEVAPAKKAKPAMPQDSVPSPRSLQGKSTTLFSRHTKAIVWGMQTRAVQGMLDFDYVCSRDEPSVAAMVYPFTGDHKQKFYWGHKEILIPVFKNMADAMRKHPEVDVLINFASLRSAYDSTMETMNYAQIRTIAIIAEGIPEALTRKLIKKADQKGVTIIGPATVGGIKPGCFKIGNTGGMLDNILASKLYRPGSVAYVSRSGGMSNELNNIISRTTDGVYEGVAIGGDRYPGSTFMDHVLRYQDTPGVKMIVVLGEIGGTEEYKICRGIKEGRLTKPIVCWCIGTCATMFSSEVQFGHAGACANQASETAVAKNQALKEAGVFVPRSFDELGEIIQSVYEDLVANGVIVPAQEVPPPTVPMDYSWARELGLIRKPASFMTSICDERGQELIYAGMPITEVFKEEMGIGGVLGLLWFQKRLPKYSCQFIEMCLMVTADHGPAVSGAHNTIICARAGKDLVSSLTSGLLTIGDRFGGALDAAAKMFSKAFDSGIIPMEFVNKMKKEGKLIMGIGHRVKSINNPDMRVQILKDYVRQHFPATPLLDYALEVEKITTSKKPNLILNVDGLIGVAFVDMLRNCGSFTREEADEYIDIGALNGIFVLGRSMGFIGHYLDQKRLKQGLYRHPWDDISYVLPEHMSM

Results are given in words; binding and its absence hold for the method and conditions named. Binding seen in cells or lysates may run through a third protein. Binding calls can cover weak binding; strength is not graded here.

The test deals with ERp44 Δ1 (mutations in the thioredoxin region, mutant in 30–138) with HA tag (UniProt Q9BS26). The test can be described thus: co-IP; 293T and CNE2 cells transfected with HA-tagged ERp44 variants; Pierce Co-Immunoprecipitation Kit, 4 °C; western blot with anti-ACLY and anti-HA-tag.

“ATP citrate lyase in 293T and CNE2 cells transfected with the ERp44 variants (from UniProt P53396 1-1101) (enzyme)”: the binding entry was “binds”.
